These results are taken from article PMC7026046.

Protein sequences, listed by entry. Tags and fused reporters are not part of them.
UniProt P35222: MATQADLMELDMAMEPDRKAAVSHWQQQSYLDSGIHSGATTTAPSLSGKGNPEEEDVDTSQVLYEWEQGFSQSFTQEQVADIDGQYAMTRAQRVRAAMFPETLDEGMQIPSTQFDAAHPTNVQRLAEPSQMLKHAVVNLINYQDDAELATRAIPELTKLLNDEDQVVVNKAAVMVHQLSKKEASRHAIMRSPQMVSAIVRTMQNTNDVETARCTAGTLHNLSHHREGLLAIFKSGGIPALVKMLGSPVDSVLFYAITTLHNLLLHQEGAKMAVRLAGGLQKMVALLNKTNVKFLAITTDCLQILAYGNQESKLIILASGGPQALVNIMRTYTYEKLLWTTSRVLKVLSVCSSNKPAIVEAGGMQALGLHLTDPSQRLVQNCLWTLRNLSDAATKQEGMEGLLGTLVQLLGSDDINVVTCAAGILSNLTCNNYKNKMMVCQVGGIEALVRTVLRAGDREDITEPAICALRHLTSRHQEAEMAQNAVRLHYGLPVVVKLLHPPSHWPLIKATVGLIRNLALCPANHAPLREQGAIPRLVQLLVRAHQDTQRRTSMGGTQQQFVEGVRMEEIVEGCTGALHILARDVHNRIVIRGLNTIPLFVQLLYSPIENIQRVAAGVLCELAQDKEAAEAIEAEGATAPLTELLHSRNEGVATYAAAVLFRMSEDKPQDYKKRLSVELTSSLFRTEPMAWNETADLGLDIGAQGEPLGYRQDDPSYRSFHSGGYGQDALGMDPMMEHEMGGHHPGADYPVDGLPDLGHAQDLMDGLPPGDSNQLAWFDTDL

For the experiment, the target named is T1, FOXM1 (human (endogenous in MV4-11)) (UniProt Q08050).
T1 sequence: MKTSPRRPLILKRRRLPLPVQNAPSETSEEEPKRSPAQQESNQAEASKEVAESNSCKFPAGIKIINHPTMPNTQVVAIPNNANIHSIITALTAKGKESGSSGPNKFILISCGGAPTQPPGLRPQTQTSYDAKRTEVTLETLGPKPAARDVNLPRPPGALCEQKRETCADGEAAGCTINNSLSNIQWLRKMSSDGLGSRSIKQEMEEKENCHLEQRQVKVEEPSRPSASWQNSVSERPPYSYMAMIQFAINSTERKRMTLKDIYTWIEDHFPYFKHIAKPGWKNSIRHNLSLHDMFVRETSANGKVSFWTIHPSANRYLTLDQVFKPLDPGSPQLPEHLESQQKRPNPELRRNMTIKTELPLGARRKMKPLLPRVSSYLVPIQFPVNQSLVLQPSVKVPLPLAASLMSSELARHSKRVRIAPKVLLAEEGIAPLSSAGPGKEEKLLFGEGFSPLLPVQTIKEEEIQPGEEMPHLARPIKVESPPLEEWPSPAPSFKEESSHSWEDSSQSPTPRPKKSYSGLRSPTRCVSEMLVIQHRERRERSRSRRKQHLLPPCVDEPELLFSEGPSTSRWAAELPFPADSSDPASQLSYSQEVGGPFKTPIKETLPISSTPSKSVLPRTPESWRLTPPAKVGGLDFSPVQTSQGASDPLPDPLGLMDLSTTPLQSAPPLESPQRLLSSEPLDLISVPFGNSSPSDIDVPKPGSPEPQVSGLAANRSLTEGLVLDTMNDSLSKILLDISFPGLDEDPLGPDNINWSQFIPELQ
Nature of the experiment: co-IP; endogenous proteins in MV4-11 cell lysate; NETN buffer (150 mM NaCl, 1 mM EDTA, 2 mM Tris-HCl, 0.5% NP-40, pH 7.5); FOXM1 antibody plus Protein G agarose beads, 4 °C overnight; western blot. In general terms: In western blotting, separated proteins are transferred to a membrane and probed.

Results are given in words; binding and its absence hold for the method and conditions named. Binding seen in cells or lysates may run through a third protein. Some results given as binding are weak or reduced against the parent protein; the word gives no strength.

In the case of β-CATENIN (from UniProt P35222 1-781), the binding entry is reported as “binds”.
